This is one part of the list. Small differences around the control level are noise.

The chains behind the UniProt entries cited, without tags or fusion partners. Where a name states a change or a piece, a line headed by the entry shows the natural chain unless it says otherwise.
UniProt Q6WRX3: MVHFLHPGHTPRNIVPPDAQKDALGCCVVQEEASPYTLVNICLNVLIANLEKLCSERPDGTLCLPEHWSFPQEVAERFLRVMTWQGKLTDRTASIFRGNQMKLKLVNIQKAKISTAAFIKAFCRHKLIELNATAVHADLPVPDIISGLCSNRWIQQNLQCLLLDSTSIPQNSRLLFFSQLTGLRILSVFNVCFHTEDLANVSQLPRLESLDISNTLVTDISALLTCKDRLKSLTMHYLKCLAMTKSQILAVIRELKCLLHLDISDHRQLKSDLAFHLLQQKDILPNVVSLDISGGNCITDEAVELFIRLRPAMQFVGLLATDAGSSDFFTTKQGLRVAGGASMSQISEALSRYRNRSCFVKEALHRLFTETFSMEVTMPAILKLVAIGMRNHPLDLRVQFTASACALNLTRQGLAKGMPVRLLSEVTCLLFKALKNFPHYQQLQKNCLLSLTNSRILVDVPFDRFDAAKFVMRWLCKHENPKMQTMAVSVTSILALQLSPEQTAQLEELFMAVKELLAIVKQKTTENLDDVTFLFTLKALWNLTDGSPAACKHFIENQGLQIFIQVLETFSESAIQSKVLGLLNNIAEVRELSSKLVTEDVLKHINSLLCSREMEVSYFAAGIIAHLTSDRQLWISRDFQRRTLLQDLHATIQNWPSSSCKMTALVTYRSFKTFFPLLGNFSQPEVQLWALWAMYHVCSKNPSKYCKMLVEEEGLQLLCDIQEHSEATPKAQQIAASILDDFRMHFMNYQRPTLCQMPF
UniProt Q6TFL4: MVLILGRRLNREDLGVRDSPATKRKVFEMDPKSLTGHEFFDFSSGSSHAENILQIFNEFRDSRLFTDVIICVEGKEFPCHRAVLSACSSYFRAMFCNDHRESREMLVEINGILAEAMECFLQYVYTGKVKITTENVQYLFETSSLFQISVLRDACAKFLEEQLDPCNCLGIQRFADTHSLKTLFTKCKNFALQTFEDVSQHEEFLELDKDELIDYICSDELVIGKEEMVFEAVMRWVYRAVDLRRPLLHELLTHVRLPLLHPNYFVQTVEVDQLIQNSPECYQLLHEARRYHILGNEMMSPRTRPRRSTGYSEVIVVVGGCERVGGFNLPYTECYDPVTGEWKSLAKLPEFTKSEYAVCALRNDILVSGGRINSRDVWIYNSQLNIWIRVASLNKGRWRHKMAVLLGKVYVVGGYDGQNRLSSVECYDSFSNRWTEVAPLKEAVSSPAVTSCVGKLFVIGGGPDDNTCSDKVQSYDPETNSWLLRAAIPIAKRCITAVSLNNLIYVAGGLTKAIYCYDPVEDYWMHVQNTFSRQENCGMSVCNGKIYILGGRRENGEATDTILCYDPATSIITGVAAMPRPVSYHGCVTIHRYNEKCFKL
UniProt Q6IPU0: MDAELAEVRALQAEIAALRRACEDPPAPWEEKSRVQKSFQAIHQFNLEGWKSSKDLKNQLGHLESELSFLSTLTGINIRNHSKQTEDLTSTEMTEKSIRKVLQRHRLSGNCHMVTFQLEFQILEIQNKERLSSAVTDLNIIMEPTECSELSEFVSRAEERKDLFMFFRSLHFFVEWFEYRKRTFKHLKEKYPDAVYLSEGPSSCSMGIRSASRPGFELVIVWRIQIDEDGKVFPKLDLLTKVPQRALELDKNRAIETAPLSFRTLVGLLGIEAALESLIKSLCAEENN
UniProt Q69YI7: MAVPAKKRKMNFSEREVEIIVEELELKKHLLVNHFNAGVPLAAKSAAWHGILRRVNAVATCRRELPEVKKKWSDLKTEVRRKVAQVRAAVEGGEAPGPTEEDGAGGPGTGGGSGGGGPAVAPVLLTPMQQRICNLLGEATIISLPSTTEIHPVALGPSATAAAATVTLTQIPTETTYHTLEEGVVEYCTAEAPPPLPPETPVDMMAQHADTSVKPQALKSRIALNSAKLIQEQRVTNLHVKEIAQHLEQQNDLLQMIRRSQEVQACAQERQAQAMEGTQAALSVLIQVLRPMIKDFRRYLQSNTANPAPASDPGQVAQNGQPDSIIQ
UniProt Q6NXE6: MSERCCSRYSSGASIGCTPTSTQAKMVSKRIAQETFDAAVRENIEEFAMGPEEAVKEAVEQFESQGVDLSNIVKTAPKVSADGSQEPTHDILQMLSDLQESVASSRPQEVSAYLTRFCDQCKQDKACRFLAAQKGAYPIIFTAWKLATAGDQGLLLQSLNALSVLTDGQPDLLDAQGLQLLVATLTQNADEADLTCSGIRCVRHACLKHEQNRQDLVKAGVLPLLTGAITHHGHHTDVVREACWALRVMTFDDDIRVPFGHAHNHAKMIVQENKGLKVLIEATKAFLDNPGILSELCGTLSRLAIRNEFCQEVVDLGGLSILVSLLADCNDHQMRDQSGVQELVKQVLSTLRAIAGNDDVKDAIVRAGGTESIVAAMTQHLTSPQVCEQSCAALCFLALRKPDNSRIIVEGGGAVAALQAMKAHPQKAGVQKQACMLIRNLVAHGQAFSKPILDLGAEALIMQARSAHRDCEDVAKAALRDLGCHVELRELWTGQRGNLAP
UniProt Q6L9T8, whole entry: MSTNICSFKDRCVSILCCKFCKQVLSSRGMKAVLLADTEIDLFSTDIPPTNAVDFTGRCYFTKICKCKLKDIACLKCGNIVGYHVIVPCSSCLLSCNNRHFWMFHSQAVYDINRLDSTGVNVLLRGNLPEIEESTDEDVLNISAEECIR
UniProt Q6TDU7: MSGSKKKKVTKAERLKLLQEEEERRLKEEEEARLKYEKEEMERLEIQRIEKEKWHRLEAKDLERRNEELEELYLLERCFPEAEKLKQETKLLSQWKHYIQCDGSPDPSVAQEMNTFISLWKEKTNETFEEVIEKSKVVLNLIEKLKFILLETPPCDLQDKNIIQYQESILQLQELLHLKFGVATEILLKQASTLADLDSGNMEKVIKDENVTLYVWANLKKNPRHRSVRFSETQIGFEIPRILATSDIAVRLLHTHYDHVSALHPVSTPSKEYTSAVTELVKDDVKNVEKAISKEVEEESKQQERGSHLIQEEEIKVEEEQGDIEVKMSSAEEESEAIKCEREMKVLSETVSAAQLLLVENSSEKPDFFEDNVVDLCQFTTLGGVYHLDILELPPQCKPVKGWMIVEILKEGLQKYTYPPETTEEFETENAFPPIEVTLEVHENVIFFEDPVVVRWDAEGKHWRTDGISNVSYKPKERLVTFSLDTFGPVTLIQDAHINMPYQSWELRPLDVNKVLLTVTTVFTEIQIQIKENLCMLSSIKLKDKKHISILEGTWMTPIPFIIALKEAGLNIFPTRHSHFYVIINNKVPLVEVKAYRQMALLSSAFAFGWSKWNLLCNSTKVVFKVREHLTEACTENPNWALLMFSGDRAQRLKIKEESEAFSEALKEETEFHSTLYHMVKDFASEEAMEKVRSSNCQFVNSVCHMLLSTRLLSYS
UniProt Q6NT76: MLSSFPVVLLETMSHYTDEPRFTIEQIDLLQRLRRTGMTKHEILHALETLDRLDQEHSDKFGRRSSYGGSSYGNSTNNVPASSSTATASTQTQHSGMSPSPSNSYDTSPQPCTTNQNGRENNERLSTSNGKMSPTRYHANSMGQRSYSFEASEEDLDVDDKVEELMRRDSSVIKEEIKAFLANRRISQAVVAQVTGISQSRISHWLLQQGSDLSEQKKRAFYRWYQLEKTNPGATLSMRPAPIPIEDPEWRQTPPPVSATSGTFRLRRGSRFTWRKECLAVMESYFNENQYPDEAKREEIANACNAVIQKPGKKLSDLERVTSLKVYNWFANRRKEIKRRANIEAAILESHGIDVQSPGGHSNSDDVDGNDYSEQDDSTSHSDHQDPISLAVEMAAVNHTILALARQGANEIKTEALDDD
UniProt Q6PIJ6: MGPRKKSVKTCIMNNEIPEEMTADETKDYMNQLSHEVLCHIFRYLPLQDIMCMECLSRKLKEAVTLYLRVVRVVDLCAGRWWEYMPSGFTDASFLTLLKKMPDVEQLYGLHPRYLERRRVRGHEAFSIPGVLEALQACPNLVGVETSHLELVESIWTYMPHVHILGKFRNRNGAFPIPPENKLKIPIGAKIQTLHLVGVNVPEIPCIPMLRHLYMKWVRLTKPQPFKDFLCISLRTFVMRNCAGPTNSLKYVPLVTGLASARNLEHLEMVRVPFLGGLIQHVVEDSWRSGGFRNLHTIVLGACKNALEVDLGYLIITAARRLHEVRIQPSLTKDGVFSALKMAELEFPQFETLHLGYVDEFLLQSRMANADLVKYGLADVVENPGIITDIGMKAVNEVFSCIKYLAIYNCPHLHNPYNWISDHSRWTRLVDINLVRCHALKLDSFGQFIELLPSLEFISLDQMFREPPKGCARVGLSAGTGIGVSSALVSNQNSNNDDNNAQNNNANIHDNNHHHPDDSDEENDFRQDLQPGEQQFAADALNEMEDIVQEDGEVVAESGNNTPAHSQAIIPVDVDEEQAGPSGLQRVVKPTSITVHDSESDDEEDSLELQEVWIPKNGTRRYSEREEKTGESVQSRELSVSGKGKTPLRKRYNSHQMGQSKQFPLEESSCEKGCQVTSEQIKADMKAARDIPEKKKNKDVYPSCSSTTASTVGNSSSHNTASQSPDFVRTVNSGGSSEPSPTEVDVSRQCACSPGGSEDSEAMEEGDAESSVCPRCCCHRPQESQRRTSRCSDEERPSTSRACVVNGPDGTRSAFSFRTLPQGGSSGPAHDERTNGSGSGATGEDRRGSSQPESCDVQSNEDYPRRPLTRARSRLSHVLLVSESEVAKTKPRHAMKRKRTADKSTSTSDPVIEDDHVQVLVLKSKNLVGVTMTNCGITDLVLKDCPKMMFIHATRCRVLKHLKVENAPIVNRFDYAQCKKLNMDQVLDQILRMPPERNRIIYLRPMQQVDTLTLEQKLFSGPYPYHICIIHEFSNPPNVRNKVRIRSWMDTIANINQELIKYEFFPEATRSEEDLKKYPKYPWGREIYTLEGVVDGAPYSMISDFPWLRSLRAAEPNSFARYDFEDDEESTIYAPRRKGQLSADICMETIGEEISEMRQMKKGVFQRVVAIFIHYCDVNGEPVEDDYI

Compound in this assay: CN[C@@H]1C[C@H]2O[C@@](C)([C@@H]1OC)n1c3ccccc3c3c4c(c5c6ccccc6n2c5c31)C(=O)NC4 [staurosporine]
Description: log2 fold change of tryptic peptide abundance, ligand vs vehicle (limited proteolysis) (log2 ratio); higher = more trypsin-susceptible (destabilized). The following applies: ligand concentration: 20 uM; sample: K562 cleared lysate; digestion: 4 min, 22 C (HT-PELSA RT4min, Orbitrap Astral).
In the case of “UniProt Q6P1J9 (peptide sequence: QPIPAAYNR, peptide start residue: 284)”, the log2 fold change was -0.274.
As to “ZYG11A (peptide sequence: ILVDVPFDRFDAAK, peptide start residue: 456) (UniProt Q6WRX3)”, the log2 fold change was -0.419.
With “UniProt Q6TFL4 (peptide sequence: YHILGNEMMSPR, peptide start residue: 291)”, the log2 fold change turned out to be 0.497.
With “CENPP (peptide sequence: RACEDPPAPWEEK, peptide start residue: 20) (UniProt Q6IPU0)” the figure was -0.206.
With “NAIF1 (peptide sequence: SQEVQACAQER, peptide start residue: 260) (UniProt Q69YI7)” the figure was 0.971; with “ARMC6 (peptide sequence: AFLDNPGILSELCGTLSR, peptide start residue: 285) (UniProt Q6NXE6)”, -0.113.
For the target “UniProt Q6L9T8 (peptide sequence: LDSTGVNVLLR, peptide start residue: 115)”, the log2 fold change turned out to be 0.0924.
In the case of “MRPL14 (peptide sequence: ALIVGHCMPGPR, peptide start residue: 84) (UniProt Q6P1L8)”, the log2 fold change is 0.132.
Turning to “CASC1 (peptide sequence: LLQEEEER, peptide start residue: 377) (UniProt Q6TDU7)”, the log2 fold change was -0.0315.
The result for “HMBOX1 (peptide sequence: YHANSMGQR, peptide start residue: 137) (UniProt Q6NT76)” reads 0.364; that for “FBXO38 (peptide sequence: LSHVLLVSESEVAK, peptide start residue: 875) (UniProt Q6PIJ6)”, 0.166.

The values are drawn from the supplement of paper PMC12819154, “High-throughput peptide-centric local stability assay extends protein–ligand identification to membrane proteins, tissues and bacteria” (Nature Structural & Molecular Biology, 2025).
